Measurements reported in PubChem BioAssay AID1259308 (NCATS, 2017)

Assay: 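Knock-downs that increase output of a recombinant reporter protein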 (primary screen)
System: human HEK293 embryonic kidney cells stably expressing firefly luciferase (HEK-CMV-Luc2-Hygro)
Reagent: single siRNA against human genes, 0.8 pmol siRNA per well
Timing: 72 h
Measured: 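Luciferase light (ONE-Glo) measured on one replicate plate set and viability (CellTiter-Glo) on the other, scaled to a negative control siRNA, with robust z-scores and luciferase per cell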
Scale: total luciferase, z-score and total luciferase, % of control: higher = more reporter protein produced
Call rule: 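An siRNA counts as active if its total luciferase robust z-score exceeds 3; genes with two or more such siRNAs out of three were retested with fresh siRNAs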
Calls: active = raised luciferase; inactive = no rise
This is one part, drawn at random, of about 59,000 deposited reagents. In the full data, about 1,510 (2.6%) are marked active. 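Calls use total luciferase alone and ignore viability, so some active siRNAs may act by altering cell number.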 The numbers tell different reagents against one gene apart. Further read-outs or replicates are left out here. Reagent sequences are not shown.

target,reagent no.,"total luciferase, z-score","total luciferase, % of control",Outcome
ZNHIT6,1,-0.58,70.4,inactive
ZNHIT6,2,0.127,84.4,inactive
ZNHIT6,3,-0.267,76.6,inactive
CCT3,1,0.943,101,inactive
CCT3,2,1.68,115,inactive
CCT3,3,2.06,123,inactive
ETV5,1,1.15,105,inactive
ETV5,2,-1.57,50.6,inactive
ETV5,3,-2.54,31.4,inactive
CYGB,1,1.35,109,inactive
CYGB,2,0.77,97.2,inactive
CYGB,3,0.0515,82.9,inactive
RFX7,1,-0.119,79.5,inactive
RFX7,2,-0.368,74.6,inactive
RFX7,3,-1.38,54.4,inactive
NPTN,1,1.15,105,inactive
NPTN,2,0.481,91.5,inactive
NPTN,3,0.0731,83.3,inactive
DPRX,1,0.235,86.6,inactive
DPRX,2,-2.01,41.9,inactive
DPRX,3,-0.191,78.1,inactive
CSTF3-DT,1,-0.657,68.8,inactive
CSTF3-DT,2,2.64,134,inactive
CSTF3-DT,3,1.86,119,inactive
RSPO2,1,0.79,97.6,inactive
RSPO2,2,-0.468,72.6,inactive
RSPO2,3,-0.562,70.7,inactive
AIRIM,1,-1.28,56.5,inactive
AIRIM,2,-2.23,37.6,inactive
AIRIM,3,-0.412,73.7,inactive
ZFR2,1,-0.636,69.2,inactive
ZFR2,2,0.692,95.7,inactive
ZFR2,3,0.947,101,inactive
ZNF354A,1,1.26,107,inactive
ZNF354A,2,0.16,85.1,inactive
ZNF354A,3,0.838,98.6,inactive
ACTA1,1,3.71,156,active
ACTA1,2,2.71,136,inactive
ACTA1,3,1.11,104,inactive
SAR1AP1,1,2.57,133,inactive
SAR1AP1,2,0.32,88.3,inactive
SAR1AP1,3,-0.749,67,inactive
BTN1A1,1,-0.19,78.1,inactive
BTN1A1,2,-1.42,53.7,inactive
BTN1A1,3,0.355,88.9,inactive
PLK3,1,-0.00847,81.7,inactive
PLK3,2,-0.94,63.2,inactive
PLK3,3,-0.806,65.9,inactive
SAXO1,1,-0.467,72.6,inactive
SAXO1,2,-1.07,60.6,inactive
SAXO1,3,-0.273,76.5,inactive
ZNF518B,1,0.395,89.7,inactive
ZNF518B,2,-0.648,69,inactive
ZNF518B,3,-0.161,78.7,inactive
LURAP1,1,0.736,96.5,inactive
LURAP1,2,-1.78,46.6,inactive
LURAP1,3,-0.0413,81.1,inactive

7 entries from above, reformatted:
target	reagent no.	total luciferase, z-score	total luciferase, % of control	Outcome
PLK3	2	-0.94	63.2	inactive
PLK3	3	-0.806	65.9	inactive
SAXO1	1	-0.467	72.6	inactive
SAXO1	2	-1.07	60.6	inactive
SAXO1	3	-0.273	76.5	inactive
ZNF518B	1	0.395	89.7	inactive
ZNF518B	2	-0.648	69	inactive
